Numbering of substitutions follows the chain as printed. No constants are given. Whether binding was seen depends on the method and setting. In cells and extracts the contact can be indirect. Some binding calls cover weakened binding; strength is not graded here. Tags and fused reporters may be left off the sequences shown. One block for each molecule: values may come before it.
How the values were obtained:
[1] = molecular target: T1, Myc-GFP-STIL (wild type), not phosphorylated by co-expressed active PLK4 (human) (UniProt Q15468); test: co-IP; HEK293FT cells co-transfected, with kinase active or kinase dead PLK4^Δ24-mCherry where stated; lysis buffer 10 mM Tris pH 7.5, 0.1% Triton X-100, 250 mM NaCl, 1 mM EDTA, phosphatase inhibitors; Myc-GFP-STIL captured on beads coupled to GFP-binding protein; immunoblot
T1 sequence: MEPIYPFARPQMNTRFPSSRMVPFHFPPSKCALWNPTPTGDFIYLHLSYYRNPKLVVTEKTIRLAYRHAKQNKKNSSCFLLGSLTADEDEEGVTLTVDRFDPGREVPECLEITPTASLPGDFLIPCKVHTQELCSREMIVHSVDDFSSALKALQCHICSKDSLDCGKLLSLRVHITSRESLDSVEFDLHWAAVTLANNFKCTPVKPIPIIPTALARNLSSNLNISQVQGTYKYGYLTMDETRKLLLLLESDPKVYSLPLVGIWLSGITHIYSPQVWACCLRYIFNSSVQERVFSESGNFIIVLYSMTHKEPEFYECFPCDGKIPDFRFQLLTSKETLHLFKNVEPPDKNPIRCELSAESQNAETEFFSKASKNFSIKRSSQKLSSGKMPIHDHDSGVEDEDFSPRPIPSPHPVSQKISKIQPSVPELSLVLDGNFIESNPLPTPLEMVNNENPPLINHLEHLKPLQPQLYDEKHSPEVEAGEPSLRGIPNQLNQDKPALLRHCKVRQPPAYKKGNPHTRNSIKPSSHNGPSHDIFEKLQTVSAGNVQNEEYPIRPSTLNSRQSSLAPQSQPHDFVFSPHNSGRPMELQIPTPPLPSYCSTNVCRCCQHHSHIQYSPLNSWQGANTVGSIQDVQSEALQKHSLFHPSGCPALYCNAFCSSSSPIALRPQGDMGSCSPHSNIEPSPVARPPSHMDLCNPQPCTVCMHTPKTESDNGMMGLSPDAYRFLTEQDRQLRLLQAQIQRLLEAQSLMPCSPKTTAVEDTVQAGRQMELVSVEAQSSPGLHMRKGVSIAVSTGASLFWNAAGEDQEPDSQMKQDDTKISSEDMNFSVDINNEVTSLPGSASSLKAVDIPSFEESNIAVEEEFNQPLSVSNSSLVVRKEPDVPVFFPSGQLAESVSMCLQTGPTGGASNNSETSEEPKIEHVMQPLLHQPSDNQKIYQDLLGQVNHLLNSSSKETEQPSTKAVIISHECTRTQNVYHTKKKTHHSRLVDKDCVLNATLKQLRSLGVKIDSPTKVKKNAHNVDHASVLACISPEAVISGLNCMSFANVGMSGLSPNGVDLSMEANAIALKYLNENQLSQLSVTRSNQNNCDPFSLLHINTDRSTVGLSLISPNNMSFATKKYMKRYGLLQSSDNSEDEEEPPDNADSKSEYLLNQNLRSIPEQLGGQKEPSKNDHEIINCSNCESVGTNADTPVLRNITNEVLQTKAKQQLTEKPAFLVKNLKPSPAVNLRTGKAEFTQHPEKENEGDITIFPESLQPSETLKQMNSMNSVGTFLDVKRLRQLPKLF

Amino acid sequences for entries named in this document (tags omitted).
UniProt Q86VV8: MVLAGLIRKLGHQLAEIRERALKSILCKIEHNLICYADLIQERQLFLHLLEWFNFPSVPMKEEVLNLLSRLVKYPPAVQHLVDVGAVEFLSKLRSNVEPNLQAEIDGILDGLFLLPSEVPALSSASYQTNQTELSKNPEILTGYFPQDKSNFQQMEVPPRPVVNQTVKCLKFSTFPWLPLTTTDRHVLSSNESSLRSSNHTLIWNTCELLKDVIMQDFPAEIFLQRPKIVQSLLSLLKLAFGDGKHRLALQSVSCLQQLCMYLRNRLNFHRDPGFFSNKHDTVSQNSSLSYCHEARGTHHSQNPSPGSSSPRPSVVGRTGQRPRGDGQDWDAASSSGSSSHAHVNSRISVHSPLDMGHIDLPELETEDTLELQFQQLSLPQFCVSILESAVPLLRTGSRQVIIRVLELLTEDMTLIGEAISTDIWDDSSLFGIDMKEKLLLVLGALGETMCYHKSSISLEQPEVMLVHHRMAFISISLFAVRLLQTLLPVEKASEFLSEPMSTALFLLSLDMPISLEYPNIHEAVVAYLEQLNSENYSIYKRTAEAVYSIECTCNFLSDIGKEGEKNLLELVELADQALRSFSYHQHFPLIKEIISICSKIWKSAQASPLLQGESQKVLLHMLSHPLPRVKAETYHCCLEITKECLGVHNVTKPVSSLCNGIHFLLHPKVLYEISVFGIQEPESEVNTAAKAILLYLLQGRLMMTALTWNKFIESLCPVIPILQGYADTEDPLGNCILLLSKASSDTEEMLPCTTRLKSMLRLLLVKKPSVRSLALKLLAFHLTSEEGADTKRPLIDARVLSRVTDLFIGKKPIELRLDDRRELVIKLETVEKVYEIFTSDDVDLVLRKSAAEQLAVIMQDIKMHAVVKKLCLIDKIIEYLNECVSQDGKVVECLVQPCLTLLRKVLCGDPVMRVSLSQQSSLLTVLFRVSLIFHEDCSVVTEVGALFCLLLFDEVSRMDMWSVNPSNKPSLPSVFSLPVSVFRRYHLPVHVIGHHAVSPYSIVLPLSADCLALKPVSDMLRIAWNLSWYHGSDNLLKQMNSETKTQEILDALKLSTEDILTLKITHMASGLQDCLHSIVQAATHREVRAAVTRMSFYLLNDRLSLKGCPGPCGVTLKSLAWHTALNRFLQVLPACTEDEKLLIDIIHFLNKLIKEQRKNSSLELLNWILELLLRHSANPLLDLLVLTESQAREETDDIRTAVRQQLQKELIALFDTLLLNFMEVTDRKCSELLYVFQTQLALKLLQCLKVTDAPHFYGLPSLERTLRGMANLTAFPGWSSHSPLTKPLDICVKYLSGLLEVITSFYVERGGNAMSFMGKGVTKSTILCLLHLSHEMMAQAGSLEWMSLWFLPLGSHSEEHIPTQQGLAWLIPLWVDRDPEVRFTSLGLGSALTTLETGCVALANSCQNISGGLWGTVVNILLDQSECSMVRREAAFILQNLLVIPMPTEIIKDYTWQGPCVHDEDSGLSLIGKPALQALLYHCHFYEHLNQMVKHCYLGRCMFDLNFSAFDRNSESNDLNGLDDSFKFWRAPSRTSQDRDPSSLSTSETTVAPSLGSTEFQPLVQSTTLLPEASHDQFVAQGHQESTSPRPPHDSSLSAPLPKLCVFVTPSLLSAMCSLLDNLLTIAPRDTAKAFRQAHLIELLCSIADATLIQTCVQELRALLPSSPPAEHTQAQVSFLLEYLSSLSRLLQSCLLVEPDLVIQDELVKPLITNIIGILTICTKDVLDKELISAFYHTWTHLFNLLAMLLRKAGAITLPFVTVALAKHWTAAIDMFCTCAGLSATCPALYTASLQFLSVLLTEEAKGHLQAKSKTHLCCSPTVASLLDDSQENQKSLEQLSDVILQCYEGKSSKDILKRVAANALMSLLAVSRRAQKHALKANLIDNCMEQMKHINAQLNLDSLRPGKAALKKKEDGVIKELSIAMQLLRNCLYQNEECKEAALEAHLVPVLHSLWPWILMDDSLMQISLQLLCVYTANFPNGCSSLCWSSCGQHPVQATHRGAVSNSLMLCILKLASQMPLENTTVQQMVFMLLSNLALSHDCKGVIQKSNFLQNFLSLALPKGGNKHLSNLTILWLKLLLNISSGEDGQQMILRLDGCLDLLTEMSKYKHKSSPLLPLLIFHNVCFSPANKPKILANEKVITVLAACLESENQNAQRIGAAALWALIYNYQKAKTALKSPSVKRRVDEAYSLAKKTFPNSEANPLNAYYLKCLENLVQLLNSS

[2] = molecular target: T2, Myc-GFP-Ana2 (WT), without co-expressed DmPLK4^SBM (D. melanogaster) (UniProt Q9XZ31); test: co-IP; Drosophila S2 cells transfected with Myc-GFP-Ana2 and Flag-DmSas4 in the presence or absence of DmPLK4^SBM-mCherry; harvested 48 hr later; co-immunoprecipitation and immunoblot
T2 sequence: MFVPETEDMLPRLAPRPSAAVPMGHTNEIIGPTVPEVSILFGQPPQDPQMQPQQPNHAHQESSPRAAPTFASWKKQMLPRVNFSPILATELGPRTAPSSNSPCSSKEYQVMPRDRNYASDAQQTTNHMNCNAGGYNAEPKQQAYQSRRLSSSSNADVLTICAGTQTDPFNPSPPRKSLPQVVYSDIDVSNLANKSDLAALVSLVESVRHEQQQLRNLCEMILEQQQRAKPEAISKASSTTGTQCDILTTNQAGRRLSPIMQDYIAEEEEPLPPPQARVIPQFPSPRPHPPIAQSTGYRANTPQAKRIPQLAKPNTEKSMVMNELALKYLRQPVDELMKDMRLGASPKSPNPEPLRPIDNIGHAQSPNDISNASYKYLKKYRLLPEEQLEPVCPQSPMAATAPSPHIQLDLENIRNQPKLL

[3] = molecular target: T3, Myc-GFP-Ana2 S38A co-expressed with stabilized DmPLK4^SBM-mCherry (D. melanogaster), Q9XZ31; test: as above; conditions: remark: other sources report otherwise
T3 chain: T2 sequence with S38A

[4] = molecular target: T4, Myc-GFP-Ana2 S38A, without co-expressed DmPLK4^SBM (D. melanogaster), Q9XZ31; test: as above; conditions: remark: other sources report otherwise
T4 chain: T2 sequence with S38A

binding [1]: binds
Molecule: RTTN (from UniProt Q86VV8 1-2226)

binding [1]: binds
B1: CEP85 (protein, UniProt Q6P2H3 1-762)
chain: MAMQEKYPTEGISHVTSPSSDVIQKGSSLGTEWQTPVISEPFRSRFSRCSSVADSGDTAIGTSCSDIAEDFCSSSGSPPFQPIKSHVTIPTAHVMPSTLGTSPAKPNSTPVGPSSSKLPLSGLAESVGMTRNGDLGAMKHSPGLSRDLMYFSGATGENGIEQSWFPAVGHERQEEARKFDIPSMESTLNQSAMMETLYSDPHHRVRFHNPRTSTSKELYRVLPEAKKAPGSGAVFERNGPHSNSSGVLPLGLQPAPGLSKPLPSQVWQPSPDTWHPREQSCELSTCRQQLELIRLQMEQMQLQNGAICHHPAAFGPSLPILEPAQWISILNSNEHLLKEKELLIDKQRKHISQLEQKVRESELQVHSALLGRPAPFGDVCLLRLQELQRENTFLRAQFAQKTEALSREKIDLEKKLSASEVEVQLIRESLKVALQKHSEEVKKQEERVKGRDKHINNLKKKCQKESEQNREKQQRIETLERYLADLPTLEDHQKQSQQLKDSELKSTELQEKVTELESLLEETQAICREKEIQLESLRQREAEFSSAGHSLQDKQSVEETSGEGPEVEMESWQKRYDSLQKIVEKQQQKMDQLRSQVQSLEQEVAQEEGTSQALREEAQRRDSALQQLRTAVKELSVQNQDLIEKNLTLQEHLRQAQPGSPPSPDTAQLALELHQELASCLQDLQAVCSIVTQRAQGHDPNLSLLLGIHSAQHPETQLDLQKPDVIKRKLEEVQQLRRDIEDLRTTMSDRYAQDMGENCVTQ

binding [2]: binds
B2: Flag-DmSas4 (natural protein, D. melanogaster, UniProt Q9VI72 1-901, looked up)
chain: MQEAGESPVGMPLSQEAIAQRLAALSRWQDEQKRLLQERQSNHRVLLGLEQRNMYKMLGLLHQETESHENSVLEEWDEEHSIQMPRLAADPDEHEPEISMADPQPAKPKRPFLRRGEGLKQRFKINPDQLRLENLPRYKFANAHPQFRTPQMKKGILKKQVKSPPNPAPPPAPKPSAQLDDLNEQRFQQMLIGKNACSSTPDLKSSYASSTTASSTSPRVRFVEQKSRAGQTTHADDEASSEASPMTGVCWAKVLDTQSIKPAQIQRRSAQIRVEDDSNVSIFELLEQKATEGNIDMNSSCIRTFMARKDQRRRVADDSDHIVVTQQVRQMRLQPQVDQMLVQELQEGDEEDTEPSSDQTLTMTPIQVGNTKVRVRFSDSNDTHEYSDATSLNDGSNIQLFEQFKSALFQALEQKKKSSPSKESDEPITKDLQEKANLVRTRLEELETEIATFKEQNAQLLRLRQQHELEKAKCTQDHMEAMERVHDEKIQAEIYLHDERMKIEEERRKFEQQMRLQKSNANSKEKKEIAALKQEVEGLQLQLKQKEQAHVSAQARLRAQLRASEKEQRNYRDEIELLRKENKRLEQELVKIGRENNSKMLQEINRNIARLAPKVLPSATMSDILDENGRRTQSLDGTAGKPAKQREAQNRRQSSGSAQVRSRSRSLSRNKKTPYALDESYASSSSVESEEVQPPVTAPKAATPPPAANSSSDFKREITNADGSKDIWYPNGNLKKISADGMNLRMLYFNKDIKETNIREGTVKYYYAETNTWHTSYLDGLEILEFPNGQTEHRRKDGTVEIHFPNNSIKIVDPSDTEKLEEWRYADGTHLVQLRNGDKILNLPNGQKEIHTKLNKRREYPDGTVKLVYPDGSQETRYSNGRVRLKDKDGKLIMDTDYAKY
notes: Sas-4 (DmSas4), D. melanogaster; also called CPAP orthologue DmSas4; source: Drosophila S2 cells, transfected, in lysate; not shown: FLAG, N-terminal, kept

binding [3]: binds
binding [4]: binds
B3: Flag-DmSas4, Q9VI72 1-901 (protein)
chain: B2 chain
